Results from patent US20090118471A1, “NOVEL COUMARIN DERIVATIVES” (The University of Tokyo, priority 2006, published 2009).
Some results were stated once for a whole list of compounds, not compound by compound. At least one structure is not confirmed: it was looked up by name or label, or the drawing left a doubt.

Assay: Fluorescence quantum yield before and after reaction with L-cysteine
Type: physicochemical
Details: before addition reaction with thiol group of cysteine; 10 μmol/L in 100 mmol/L sodium phosphate buffer pH 7.4, 0.1% DMSO; excitation 328 nm

With O=C(CCCN1C(=O)C=CC1=O)NCc1cc(=O)oc2cc(O)ccc12 [Compound 3] the Fluorescence quantum yield was “lower than 0.05”.
